Drawing on paper PMC10470592, this text covers binding for two molecules.

No constants are given. Whether binding was seen depends on the method and setting. In cells and extracts the contact can be indirect. Some results given as binding are weak or reduced against the parent protein; the word gives no strength.

In test [1] the target is T1, endogenous IRF3 of THP-1 cells (human (endogenous in THP-1)) (UniProt Q14653).
T1 sequence: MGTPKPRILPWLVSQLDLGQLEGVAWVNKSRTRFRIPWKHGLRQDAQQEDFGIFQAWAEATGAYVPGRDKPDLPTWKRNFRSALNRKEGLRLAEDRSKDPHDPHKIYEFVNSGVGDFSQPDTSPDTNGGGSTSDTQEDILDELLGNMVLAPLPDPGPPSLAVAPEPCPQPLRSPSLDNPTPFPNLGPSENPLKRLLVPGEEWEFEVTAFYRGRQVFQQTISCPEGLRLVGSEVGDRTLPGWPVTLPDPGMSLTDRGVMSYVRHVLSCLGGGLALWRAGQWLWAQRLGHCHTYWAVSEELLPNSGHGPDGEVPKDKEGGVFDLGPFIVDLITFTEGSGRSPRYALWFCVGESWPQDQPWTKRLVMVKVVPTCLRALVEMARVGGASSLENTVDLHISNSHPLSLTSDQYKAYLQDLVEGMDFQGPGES
In words: co-IP; endogenous proteins; extracts of RAW 264.7 cells, BMDMs and THP-1 cells stimulated with P.y. gDNA (1 μg) for various times; IP with anti-IRF3 antibody, immunoblot. (A western blot detects proteins with antibodies after separation by electrophoresis.)

Test [2] concerns the target T2, endogenous NDP52 of mouse cells (RAW 264.7, BMDMs) (mouse (endogenous in RAW 264.7 and BMDMs)) (UniProt A2A6M5).
T2 sequence: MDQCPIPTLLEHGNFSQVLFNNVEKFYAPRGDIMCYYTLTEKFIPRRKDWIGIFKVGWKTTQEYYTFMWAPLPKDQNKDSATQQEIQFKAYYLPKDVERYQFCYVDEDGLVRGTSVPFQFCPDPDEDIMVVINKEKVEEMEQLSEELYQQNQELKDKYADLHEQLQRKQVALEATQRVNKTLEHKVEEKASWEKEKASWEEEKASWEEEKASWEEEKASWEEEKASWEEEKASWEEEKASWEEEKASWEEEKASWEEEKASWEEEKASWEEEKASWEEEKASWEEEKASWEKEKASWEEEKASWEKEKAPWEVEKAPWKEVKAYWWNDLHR
In words: co-IP; endogenous proteins; WT RAW 264.7 cells and Flag-SHIP1 doxy-inducible RAW 264.7 cells; IP with anti-NDP52 antibody, immunoblot.

B1: endogenous SHIP1 of THP-1 cells (protein, UniProt Q92835 1-1189)
chain: MVPCWNHGNITRSKAEELLSRTGKDGSFLVRASESISRAYALCVLYRNCVYTYRILPNEDDKFTVQASEGVSMRFFTKLDQLIEFYKKENMGLVTHLQYPVPLEEEDTGDDPEEDTVESVVSPPELPPRNIPLTASSCEAKEVPFSNENPRATETSRPSLSETLFQRLQSMDTSGLPEEHLKAIQDYLSTQLAQDSEFVKTGSSSLPHLKKLTTLLCKELYGEVIRTLPSLESLQRLFDQQLSPGLRPRPQVPGEANPINMVSKLSQLTSLLSSIEDKVKALLHEGPESPHRPSLIPPVTFEVKAESLGIPQKMQLKVDVESGKLIIKKSKDGSEDKFYSHKKILQLIKSQKFLNKLVILVETEKEKILRKEYVFADSKKREGFCQLLQQMKNKHSEQPEPDMITIFIGTWNMGNAPPPKKITSWFLSKGQGKTRDDSADYIPHDIYVIGTQEDPLSEKEWLEILKHSLQEITSVTFKTVAIHTLWNIRIVVLAKPEHENRISHICTDNVKTGIANTLGNKGAVGVSFMFNGTSLGFVNSHLTSGSEKKLRRNQNYMNILRFLALGDKKLSPFNITHRFTHLFWFGDLNYRVDLPTWEAETIIQKIKQQQYADLLSHDQLLTERREQKVFLHFEEEEITFAPTYRFERLTRDKYAYTKQKATGMKYNLPSWCDRVLWKSYPLVHVVCQSYGSTSDIMTSDHSPVFATFEAGVTSQFVSKNGPGTVDSQGQIEFLRCYATLKTKSQTKFYLEFHSSCLESFVKSQEGENEEGSEGELVVKFGETLPKLKPIISDPEYLLDQHILISIKSSDSDESYGEGCIALRLEATETQLPIYTPLTHHGELTGHFQGEIKLQTSQGKTREKLYDFVKTERDESSGPKTLKSLTSHDPMKQWEVTSRAPPCSGSSITEIINPNYMGVGPFGPPMPLHVKQTLSPDQQPTAWSYDQPPKDSPLGPCRGESPPTPPGQPPISPKKFLPSTANRGLPPRTQESRPSDLGKNAGDTLPQEDLPLTKPEMFENPLYGSLSSFPKPAPRKDQESPKMPRKEPPPCPEPGILSPSIVLTKAQEADRGEGPGKQVPAPRLRSFTCSSSAEGRAAGGDKSQGKPKTPVSSQAPVPAKRPIKPSRSEINQQTPPTPTPRPPLPVKSPAVLHLQHSKGRDYRDNTELPHHGKHRPEEGPPGPLGRTAMQ
Consider B1, for which the binding result in test [1] is “binds”.

B2: endogenous IRF3 of mouse cells (RAW 264.7, BMDMs) (protein, UniProt P70671 1-419)
chain: METPKPRILPWLVSQLDLGQLEGVAWLDESRTRFRIPWKHGLRQDAQMADFGIFQAWAEASGAYTPGKDKPDVSTWKRNFRSALNRKEVLRLAADNSKDPYDPHKVYEFVTPGARDFVHLGASPDTNGKSSLPHSQENLPKLFDGLILGPLKDEGSSDLAIVSDPSQQLPSPNVNNFLNPAPQENPLKQLLAEEQWEFEVTAFYRGRQVFQQTLFCPGGLRLVGSTADMTLPWQPVTLPDPEGFLTDKLVKEYVGQVLKGLGNGLALWQAGQCLWAQRLGHSHAFWALGEELLPDSGRGPDGEVHKDKDGAVFDLRPFVADLIAFMEGSGHSPRYTLWFCMGEMWPQDQPWVKRLVMVKVVPTCLKELLEMAREGGASSLKTVDLHISNSQPISLTSDQYKAYLQDLVEDMDFQATGNI
Consider B2, for which, in test [2], the binding entry is on record as “binds”.
